# From PMC5587853
# The chains behind the UniProt entries cited, without tags or fusion partners.
# UniProt Q99717: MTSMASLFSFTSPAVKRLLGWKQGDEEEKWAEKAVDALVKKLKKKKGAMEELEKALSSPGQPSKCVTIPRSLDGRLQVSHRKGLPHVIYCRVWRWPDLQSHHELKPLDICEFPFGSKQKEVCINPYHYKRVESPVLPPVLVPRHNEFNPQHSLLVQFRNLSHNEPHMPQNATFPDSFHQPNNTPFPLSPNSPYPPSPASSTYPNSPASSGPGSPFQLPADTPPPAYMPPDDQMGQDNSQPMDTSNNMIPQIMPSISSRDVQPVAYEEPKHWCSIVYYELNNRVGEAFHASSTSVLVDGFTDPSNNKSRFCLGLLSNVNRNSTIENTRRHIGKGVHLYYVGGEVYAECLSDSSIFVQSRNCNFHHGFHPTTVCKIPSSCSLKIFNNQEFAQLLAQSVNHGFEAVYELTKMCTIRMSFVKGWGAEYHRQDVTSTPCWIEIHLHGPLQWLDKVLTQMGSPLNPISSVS
# No constants are given. Whether binding was seen depends on the method and setting. In cells and extracts the contact can be indirect. These calls come from enrichment with a bait or labelling near it, and not all partners need be listed. Sequences can lack the tags named with a protein.
# B1: hexokinase 1 (HK1) found by IP/MS with GFP-Smad5 (enzyme, UniProt P19367 1-917)
# chain: MIAAQLLAYYFTELKDDQVKKIDKYLYAMRLSDETLIDIMTRFRKEMKNGLSRDFNPTATVKMLPTFVRSIPDGSEKGDFIALDLGGSSFRILRVQVNHEKNQNVHMESEVYDTPENIVHGSGSQLFDHVAECLGDFMEKRKIKDKKLPVGFTFSFPCQQSKIDEAILITWTKRFKASGVEGADVVKLLNKAIKKRGDYDANIVAVVNDTVGTMMTCGYDDQHCEVGLIIGTGTNACYMEELRHIDLVEGDEGRMCINTEWGAFGDDGSLEDIRTEFDREIDRGSLNPGKQLFEKMVSGMYLGELVRLILVKMAKEGLLFEGRITPELLTRGKFNTSDVSAIEKNKEGLHNAKEILTRLGVEPSDDDCVSVQHVCTIVSFRSANLVAATLGAILNRLRDNKGTPRLRTTVGVDGSLYKTHPQYSRRFHKTLRRLVPDSDVRFLLSESGSGKGAAMVTAVAYRLAEQHRQIEETLAHFHLTKDMLLEVKKRMRAEMELGLRKQTHNNAVVKMLPSFVRRTPDGTENGDFLALDLGGTNFRVLLVKIRSGKKRTVEMHNKIYAIPIEIMQGTGEELFDHIVSCISDFLDYMGIKGPRMPLGFTFSFPCQQTSLDAGILITWTKGFKATDCVGHDVVTLLRDAIKRREEFDLDVVAVVNDTVGTMMTCAYEEPTCEVGLIVGTGSNACYMEEMKNVEMVEGDQGQMCINMEWGAFGDNGCLDDIRTHYDRLVDEYSLNAGKQRYEKMISGMYLGEIVRNILIDFTKKGFLFRGQISETLKTRGIFETKFLSQIESDRLALLQVRAILQQLGLNSTCDDSILVKTVCGVVSRRAAQLCGAGMAAVVDKIRENRGLDRLNVTVGVDGTLYKLHPHFSRIMHQTVKELSPKCNVSFLLSEDGSGKGAALITAVGVRLRTEASS
# Target: GFP-Smad5 (UniProt Q99717)
# Assay: affinity purification with mass spectrometry; Co-IP of GFP-Smad5 followed by mass spectrometry (IP/MS)
binder,measurement,value
B1,binding,binds
